Experimental data: PubChem BioAssay AID743456 (Peter MacCallum Cancer Centre, 2014)
This is one part, drawn at random, of 878 deposited reagents. 27 of them (3.1%) were called active. 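27 mimics are marked active, unlike an earlier stated count of 24; the viability threshold is described inconsistently.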 Entries without a mark were called inactive. Further read-outs or replicates are left out here. The record does not give: the amount of reagent.

Purpose: 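Mimic library tested for viability and apoptosis changes under vorinostat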 (primary screen)
Cell system: human HCT116-VR colon cancer cells, a vorinostat-resistant HCT116 line
Reagent: miRNA mimic
Duration: about 3 days from transfection to readout; drug present for the last 24 h
Treatment: vorinostat at 2.5 µM final for 24 h
Measurement: 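Per-well live-cell protease fluorescence and caspase luminescence under 2.5 µM vorinostat for 24 h, scored as robust z-scores and against mock transfection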
Direction: viability robust z-score: higher = more viable cells; caspase robust z-score: higher = more caspase activity, more apoptosis
Call rule: 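Active when viability drops or caspase activity climbs beyond robust z thresholds, with wells of poor cell health excluded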

hsa-miR-624*: viability robust z-score = -0.32; caspase robust z-score = -0.78; viability hit class = no change; caspase hit class = no change
hsa-miR-200a: viability robust z-score = 0.07; caspase robust z-score = -0.94; viability hit class = no change; caspase hit class = no change
hsa-miR-1538: viability robust z-score = 0.7; caspase robust z-score = -0.08; viability hit class = no change; caspase hit class = no change
hsa-miR-576-5p: viability robust z-score = 1.24; caspase robust z-score = -0.59; viability hit class = no change; caspase hit class = no change
hsa-miR-208b: viability robust z-score = -0.05; caspase robust z-score = 2.4; viability hit class = no change; caspase hit class = no change
hsa-miR-524-3p: viability robust z-score = 0.1; caspase robust z-score = -0.26; viability hit class = no change; caspase hit class = no change
hsa-miR-103-2*: viability robust z-score = -1.9; caspase robust z-score = 1.88; viability hit class = no change; caspase hit class = no change
hsa-miR-183: viability robust z-score = 0.1; caspase robust z-score = -0.98; viability hit class = no change; caspase hit class = no change
hsa-miR-210: viability robust z-score = -0.27; caspase robust z-score = 0.21; viability hit class = no change; caspase hit class = no change
hsa-miR-891b: viability robust z-score = -2.86; caspase robust z-score = 2.33; viability hit class = no change; caspase hit class = no change
hsa-miR-376c: viability robust z-score = 0.49; caspase robust z-score = -0.62; viability hit class = no change; caspase hit class = no change
hsa-miR-1323: viability robust z-score = 0.16; caspase robust z-score = 1.15; viability hit class = no change; caspase hit class = no change

2 entries already listed, arranged by “viability robust z-score”, high to low:
hsa-miR-524-3p: viability robust z-score = 0.1; caspase robust z-score = -0.26; viability hit class = no change; caspase hit class = no change
hsa-miR-103-2*: viability robust z-score = -1.9; caspase robust z-score = 1.88; viability hit class = no change; caspase hit class = no change
